# Experimental data reported in the supplement of paper PMC8728848.
# This is one part of the list.
# Assays:
# Experiment in all cases: glycan array binding signal (z-score within array); higher = stronger binding
# Details in all cases: glycan notation: IUPAC condensed, linker removed
# [1] = target: Fuc(a1-3)[Gal3S(b1-4)]GlcNAc
# How it was run: (§1)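 The binding signal is a Z-score computed within each array and averaged over linkers. Arrays of the same protein sequence at different concentrations or buffers were also averaged together. Data originate from 3228 arrays in the Consortium for Functional Glycomics database, kept only where the protein sequence was available.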
# [2] = target: Fuc(a1-3)[Gal3S(b1-4)]GlcNAc6S
# How it was run: as §1
# [3] = target: Fuc(a1-3)[GalNAc(b1-4)]GlcNAc
# How it was run: as §1
# [4] = target: Fuc(a1-3)[GalNAc(b1-4)]GlcNAc6S
# How it was run: as §1
# [5] = target: Fuc(a1-4)GlcNAc
# How it was run: as §1
# [6] = target: Fuc(b1-3)GlcNAc
# How it was run: as §1
# [7] = target: Gal(a1-2)Gal
# How it was run: as §1
# [8] = target: Gal(a1-3)Gal
# How it was run: as §1
# [9] = target: Gal(a1-3)Gal(b1-3)GlcNAc
# How it was run: as §1
# [10] = target: Gal(a1-3)Gal(b1-3)GlcNAc(b1-2)Man
# How it was run: as §1
# [11] = target: Gal(a1-3)Gal(b1-3)GlcNAc(b1-2)Man(a1-3)[Gal(a1-3)Gal(b1-3)GlcNAc(b1-2)Man(a1-6)]Man(b1-4)GlcNAc(b1-4)GlcNAc
# How it was run: as §1
# [12] = target: Gal(a1-3)Gal(b1-3)GlcNAc(b1-3)GalNAc
# How it was run: as §1
# [13] = target: Gal(a1-3)Gal(b1-3)GlcNAc(b1-6)GalNAc
# How it was run: as §1
# [14] = target: Gal(a1-3)Gal(b1-3)[Fuc(a1-4)]GlcNAc(b1-2)Man(a1-3)[Gal(a1-3)Gal(b1-3)[Fuc(a1-4)]GlcNAc(b1-2)Man(a1-6)]Man(b1-4)GlcNAc(b1-4)GlcNAc
# How it was run: as §1
# [15] = target: Gal(a1-3)Gal(b1-4)Glc
# How it was run: as §1
# [16] = target: Gal(a1-3)Gal(b1-4)GlcNAc
# How it was run: as §1
# [17] = target: Gal(a1-3)Gal(b1-4)GlcNAc(b1-2)Man
# How it was run: as §1
# [18] = target: Gal(a1-3)Gal(b1-4)GlcNAc(b1-2)Man(a1-3)[Gal(a1-3)Gal(b1-4)GlcNAc(b1-2)Man(a1-6)]Man(b1-4)GlcNAc(b1-4)GlcNAc
# How it was run: as §1
# [19] = target: Gal(a1-3)Gal(b1-4)GlcNAc(b1-3)GalNAc
# How it was run: as §1
# [20] = target: Gal(a1-3)Gal(b1-4)GlcNAc(b1-6)GalNAc
# How it was run: as §1
# [21] = target: Gal(a1-3)Gal(b1-4)[Fuc(a1-3)]GlcNAc
# How it was run: as §1
# [22] = target: Gal(a1-3)Gal(b1-4)[Fuc(a1-3)]GlcNAc(b1-2)Man(a1-3)[Gal(a1-3)Gal(b1-4)[Fuc(a1-3)]GlcNAc(b1-2)Man(a1-6)]Man(b1-4)GlcNAc(b1-4)GlcNAc
# How it was run: as §1
# [23] = target: Gal(a1-3)GalNAc
# How it was run: as §1
# [24] = target: Gal(a1-3)[Gal(a1-4)]Gal(b1-4)GlcNAc
# How it was run: as §1
# [25] = target: Gal(a1-4)Gal(b1-3)GlcNAc(b1-2)Man(a1-3)[Gal(a1-4)Gal(b1-3)GlcNAc(b1-2)Man(a1-6)]Man(b1-4)GlcNAc(b1-4)GlcNAc
# How it was run: as §1
# [26] = target: Gal(a1-4)Gal(b1-4)Glc
# How it was run: as §1
# [27] = target: Gal(a1-4)Gal(b1-4)GlcNAc
# How it was run: as §1
# [28] = target: Gal(a1-4)Gal(b1-4)GlcNAc(b1-2)Man(a1-3)[Gal(a1-4)Gal(b1-4)GlcNAc(b1-2)Man(a1-6)]Man(b1-4)GlcNAc(b1-4)GlcNAc
# How it was run: as §1
# [29] = target: Gal(a1-4)Gal(b1-4)GlcNAc(b1-3)Gal(b1-4)Glc
# How it was run: as §1
# [30] = target: Gal(a1-4)GlcNAc
# How it was run: as §1
# [31] = target: Gal(a1-6)Glc
# How it was run: as §1
# [32] = target: Gal(b1-2)Gal
# How it was run: as §1
# [33] = target: Gal(b1-3)Gal
# How it was run: as §1
# [34] = target: Gal(b1-3)Gal(b1-4)GlcNAc
# How it was run: as §1
# [35] = target: Gal(b1-3)GalNAc
# How it was run: as §1
# [36] = target: Gal(b1-3)GalNAc(a1-3)[Fuc(a1-2)]Gal(b1-4)Glc
# How it was run: as §1
# [37] = target: Gal(b1-3)GalNAc(a1-3)[Fuc(a1-2)]Gal(b1-4)GlcNAc
# How it was run: as §1
# [38] = target: Gal(b1-3)GalNAc(b1-3)Gal
# How it was run: as §1
# [39] = target: Gal(b1-3)GalNAc(b1-3)Gal(a1-4)Gal(b1-4)Glc
# How it was run: as §1
# [40] = target: Gal(b1-3)GalNAc(b1-4)Gal(b1-4)Glc
# How it was run: as §1
# [41] = target: Gal(b1-3)GalNAc(b1-4)[Neu5Ac(a2-3)]Gal(b1-4)Glc
# How it was run: as §1
# [42] = target: Gal(b1-3)GlcNAc
# How it was run: as §1
# [43] = target: Gal(b1-3)GlcNAc(a1-3)Gal(b1-4)GlcNAc
# How it was run: as §1
# [44] = target: Gal(b1-3)GlcNAc(a1-6)Gal(b1-4)GlcNAc
# How it was run: as §1
# [45] = target: Gal(b1-3)GlcNAc(b1-2)Man
# How it was run: as §1
binder,measurement,setting,value
"AT5G17240(42) (Arabidopsis thaliana), Q6NQJ8 (protein) MDLEHQTMETFLRWAAEIGISDSIDSSRFRDSCLGHSLSVSDFPDAGGRGLGAARELKKGELVLKVPRKALMTTESIIAKDLKLSDAVNLHNSLSSTQILSVCLLYEMSKEKKSFWYPYLFHIPRDYDLLATFGNFEKQALQVEDAVWATEKATAKCQSEWKEAGSLMKELELKPKFRSFQAWLWASATISSRTLHVPWDSAGCLCPVGDLFNYDAPGDYSNTPQGPESANNVEEAGLVVETHSERLTDGGFEEDVNAYCLYARRNYQLGEQVLLCYGTYTNLELLEHYGFMLEENSNDKVFIPLETSLFSLASSWPKDSLYIHQDGKLSFALISTLRLWLIPQSQRDKSVMRLVYAGSQISVKNEILVMKWMSEKCGSVLRDLPTSVTEDTVLLHNIDKLQDPELRLEQKETEAFGSEVRAFLDANCLWDVTVLSGKPIEFSRKTSRMLSKWRWSVQWRLSYKRTLADCISYCNEKMNNLLGTQDRLRDL",glycan array binding signal (z-score),[1],0.076
same,glycan array binding signal (z-score),[2],-0.017
same,glycan array binding signal (z-score),[3],0.252
same,glycan array binding signal (z-score),[4],-0.174
same,glycan array binding signal (z-score),[5],0.106
same,glycan array binding signal (z-score),[6],-0.541
same,glycan array binding signal (z-score),[7],-0.211
same,glycan array binding signal (z-score),[8],-0.466
same,glycan array binding signal (z-score),[9],0.863
same,glycan array binding signal (z-score),[10],-0.179
same,glycan array binding signal (z-score),[11],-0.175
same,glycan array binding signal (z-score),[12],-0.914
same,glycan array binding signal (z-score),[13],-0.304
same,glycan array binding signal (z-score),[14],0.28
same,glycan array binding signal (z-score),[15],-0.219
same,glycan array binding signal (z-score),[16],-0.36
same,glycan array binding signal (z-score),[17],-0.667
same,glycan array binding signal (z-score),[18],-0.094
same,glycan array binding signal (z-score),[19],-0.333
same,glycan array binding signal (z-score),[20],0.284
same,glycan array binding signal (z-score),[21],-0.657
same,glycan array binding signal (z-score),[22],-0.001
same,glycan array binding signal (z-score),[23],1.94
same,glycan array binding signal (z-score),[24],8.82
same,glycan array binding signal (z-score),[25],0.298
same,glycan array binding signal (z-score),[26],4.63
same,glycan array binding signal (z-score),[27],0.387
same,glycan array binding signal (z-score),[28],0.355
same,glycan array binding signal (z-score),[29],-0.492
same,glycan array binding signal (z-score),[30],-0.595
same,glycan array binding signal (z-score),[31],-0.436
same,glycan array binding signal (z-score),[32],-0.694
same,glycan array binding signal (z-score),[33],-0.268
same,glycan array binding signal (z-score),[34],-0.576
same,glycan array binding signal (z-score),[35],-0.195
same,glycan array binding signal (z-score),[36],-0.14
same,glycan array binding signal (z-score),[37],0.279
same,glycan array binding signal (z-score),[38],-0.267
same,glycan array binding signal (z-score),[39],-0.12
same,glycan array binding signal (z-score),[40],1.23
same,glycan array binding signal (z-score),[41],-0.077
same,glycan array binding signal (z-score),[42],0.069
same,glycan array binding signal (z-score),[43],-0.028
same,glycan array binding signal (z-score),[44],0.002
same,glycan array binding signal (z-score),[45],-0.359

# Some of the entries so far, bar-delimited:
binder | measurement | setting | value
AT5G17240(42) (Arabidopsis thaliana), Q6NQJ8 (protein) MDLEHQTMETFLRWAAEIGISDSIDSSRFRDSCLGHSLSVSDFPDAGGRGLGAARELKKGELVLKVPRKALMTTESIIAKDLKLSDAVNLHNSLSSTQILSVCLLYEMSKEKKSFWYPYLFHIPRDYDLLATFGNFEKQALQVEDAVWATEKATAKCQSEWKEAGSLMKELELKPKFRSFQAWLWASATISSRTLHVPWDSAGCLCPVGDLFNYDAPGDYSNTPQGPESANNVEEAGLVVETHSERLTDGGFEEDVNAYCLYARRNYQLGEQVLLCYGTYTNLELLEHYGFMLEENSNDKVFIPLETSLFSLASSWPKDSLYIHQDGKLSFALISTLRLWLIPQSQRDKSVMRLVYAGSQISVKNEILVMKWMSEKCGSVLRDLPTSVTEDTVLLHNIDKLQDPELRLEQKETEAFGSEVRAFLDANCLWDVTVLSGKPIEFSRKTSRMLSKWRWSVQWRLSYKRTLADCISYCNEKMNNLLGTQDRLRDL | glycan array binding signal (z-score) | [37] | 0.279
same | glycan array binding signal (z-score) | [38] | -0.267
